The text below walks through data of PubChem BioAssay AID1487 (National Center for Advancing Translational Sciences (NCATS), 2009).

The nature of the experiment: qHTS Assay for Modulators of Lamin A Splicing. The following applies: HeLa LMNA splicing GFP/RFP minigene ratio, 48 h. The gist of the method: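 Read-out is the ratio of GFP to DsRed2 object intensity, acquired by 488 nm laser-scanning cytometry on HeLa lamin A-EGFP minigene reporter cells. Compound incubation 48 hrs at 37 °C in Opti-MEM with 2% FBS; DMSO 0.5% final.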

The mark [1] stands for this setting: measured here: RFP viability control channel.
The mark [2] stands for this setting: measured here: GFP splicing reporter channel.

The other results are listed elsewhere or left out. The main result of the screen is listed elsewhere. These columns were measured beside it and carry no call. Compounds called inactive in the main read-out are mostly missing here. Words in brackets tell the shape of the fitted curve; partial curves, single points and poor fits give uncertain potencies.

Turning to `COc1ccc2c(c1)CCCC21SC(NC(C)=O)=NN1C(C)=O` (centres undefined), under setting [1], the AC50 was 10 µM [rising, partial curve]. With `CCC(CC)C(=O)Nc1ccc(C(=O)OCc2cc(=O)n3nc(C4CC4)sc3n2)cc1`, the concentration at half-maximal activity (AC50) reads like this: under setting [2], 3.98 µM [falling, full curve, poor fit]; under setting [1], 10 µM [rising, partial curve].

Regarding `C/C(=N\NC(=O)CSc1nc2ccccc2s1)c1ccco1`, under setting [1], the AC50 was 10 µM [rising, partial curve, poor fit]. `CN1C(=O)c2ccccc2Sc2ccc(NC(=O)Cc3c(F)cccc3Cl)cc21`: the AC50 runs as follows: under setting [2], 3.16 µM [falling, full curve, poor fit]; under setting [1], 7.08 µM [falling, partial curve]. Consider `CCC(=O)N/N=C(\C)CC(=O)Nc1ccc2c(c1)OCCO2`, for which the AC50 under setting [2] is 7.94 µM [falling, partial curve, poor fit]. With `OCCN=C1CCCc2c1[nH]c1ccc(Br)cc21`, the AC50 is, setting by setting: under setting [2], 15.8 µM [falling, single point]; under setting [1], 28.2 µM [falling, single point].

As for `O=C(NCc1nnc2c3ccccc3c(-c3ccccc3)nn12)c1ccc(Cl)cc1`, the AC50 is, setting by setting: under setting [2], 14.1 µM [rising, partial curve, poor fit]; under setting [1], 22.4 µM [rising, partial curve]. On to `O=C(NC1CCCCC1)C1c2ccccc2C(=O)N1Cc1ccc2c(c1)OCO2` (centres undefined), for which the AC50 under setting [2] is 7.08 µM [rising, partial curve, poor fit]. Take `O=[N+]([O-])c1ccc2c(c1)C(N1CCOCC1)/C(=C/COc1ccc(F)cc1)O2` (centres undefined): the AC50 under setting [1] is 14.1 µM [rising, partial curve, poor fit]. `CN(CC/C=C1/c2ccccc2CSc2ccccc21)CCCO`: the AC50 is 10 µM [rising, partial curve, poor fit] under setting [2] and 11.2 µM [rising, single point] under setting [1]. As for `Cc1ccccc1NC(=O)N1CCCC(c2nc(-c3ccc(F)cc3)no2)C1` (centres undefined), the AC50 under setting [1] was 14.1 µM [rising, single point]. `Cc1ccc(Nc2nc(N)c([N+](=O)[O-])c(N3CCOCC3)n2)cc1C`: the AC50 under setting [2] was 35.5 µM [rising, single point] and the AC50 under setting [1] was 35.5 µM [rising, single point]. As to `Cc1cccc(-c2nc(SCC(=O)NCC3CCCO3)c3c(=O)n(C)c(=O)n(C)c3n2)c1` (centres undefined), the AC50 under setting [2] was 0.316 µM [rising, partial curve, poor fit]. Take `COc1ccccc1[C@@H]1C(c2cccc(C)c2)=NN(c2ccccc2)[C@H]1C(=O)N1CCOC1=O`: the AC50 is 11.2 µM [falling, partial curve, poor fit] under setting [2] and 10 µM [falling, partial curve, poor fit] under setting [1]. Take `COC(=O)c1ccc(N2C(=O)Nc3ccccc3N2O)cc1`: the AC50 is 1.26 µM [falling, partial curve] under setting [2] and 35.5 µM [falling, single point] under setting [1]. For `COc1ccc(NS(=O)(=O)c2ccc(Oc3ncccn3)cc2)cc1`, the half-maximal activity concentration (AC50) under setting [1] is 11.2 µM [rising, partial curve].

Consider `CCOc1cc(/C=C/C(=O)OCC(=O)NC2CCS(=O)(=O)C2)ccc1OCc1ccccc1` (centres undefined), for which the concentration at half-maximal activity (AC50) under setting [1] was 2.51 µM [falling, partial curve]. On the same count and under the same terms, in the case of `NC(=O)CS(=O)(=O)c1nc2ccccc2n1Cc1ccccc1F` it was 25.1 µM [rising, single point]. Take `CC1CCCN(C(=O)c2cccc(S(=O)(=O)Nc3cc(C(F)(F)F)ccc3Cl)c2)C1` (centres undefined): the AC50 was 35.5 µM [rising, single point] under setting [2] and 35.5 µM [rising, single point] under setting [1].

For the compound `Cc1ccc(NC(=O)C2CCCN(S(=O)(=O)c3cccc4cccnc34)C2)c(Br)c1` (centres undefined), the concentration at half-maximal activity (AC50) under setting [2] is 3.16 µM [rising, single point]. For `Cc1nnc(SCc2c(Cl)cccc2[N+](=O)[O-])s1`, under setting [1], the concentration at half-maximal activity (AC50) is 11.2 µM [rising, partial curve, poor fit]. Turning to `C/C=C/C=N/Nc1nc(-c2ccc([N+](=O)[O-])cc2)cs1`, the AC50 under setting [1] is 31.6 µM [rising, single point].

In the case of `Cc1ccccc1NC(=O)CCC(=O)N/N=C/c1cc([N+](=O)[O-])ccc1O`, the half-maximal activity concentration (AC50) under setting [2] was 31.6 µM [rising, single point] and the AC50 under setting [1] is 31.6 µM [rising, single point].

Take `CCOC(=O)N1CCN(CC(=O)Nc2ccc(C)c(Br)c2)CC1`: under setting [1], the AC50 is 35.5 µM [rising, single point]. On the same count and under the same terms, in the case of `Cn1c(=O)c2c(nc(N3CCOCC3)n2CC(=O)c2ccccc2)n(C)c1=O` it was 0.01 µM [falling, full curve, poor fit]. Regarding `O=C1C2C3C=CC(C3)C2C(=O)N1c1ccccc1` (centres undefined), under setting [2], the concentration at half-maximal activity (AC50) was 0.501 µM [rising, full curve, poor fit].

In the case of `Cc1nc2c(Br)cc(Br)cc2cc1O`, under setting [1], the concentration at half-maximal activity (AC50) is 22.4 µM [rising, single point]. For the compound `Cc1ccc(-c2csc(NC(=O)c3ccc(-c4ccccc4)cc3)n2)o1`, the AC50 is 7.94 µM [rising, partial curve, poor fit] under setting [2] and 6.31 µM [rising, full curve] under setting [1]. Consider `CCCNC(=O)C1CCN(c2ccc(S(=O)(=O)N3CCOCC3)cc2Cl)CC1`, for which, under setting [1], the concentration at half-maximal activity (AC50) is 17.8 µM [rising, single point].

In the case of `Cc1ccc(-n2nnnc2CNC(=O)c2ccc(F)cc2)cc1C`, the half-maximal activity concentration (AC50) under setting [2] was 0.0282 µM [rising, full curve, poor fit]. In the case of `COc1ccccc1-c1nn2c(=O)cc(CN3CCN(S(=O)(=O)c4ccc(C)cc4)CC3)nc2s1`, the concentration at half-maximal activity (AC50) under setting [2] was 1.78 µM [rising, partial curve, poor fit]. On to `CCOC(=O)Cc1csc(NC(=O)CSc2ncnc3c2cnn3-c2ccc(OC)cc2)n1`, for which the AC50 was 14.1 µM [rising, partial curve] under setting [2] and 20 µM [rising, partial curve] under setting [1].

Turning to `O=C(Nc1ccc(Cl)c(Cl)c1)Oc1ccc(NC(=O)c2ccco2)cc1`, the AC50 under setting [1] was 31.6 µM [rising, single point]. Turning to `Cc1cc(=O)n(-c2ccccc2)n1C`, under setting [2], the AC50 was 0.316 µM [falling, full curve, poor fit].

For `C=CCn1c(O)c(N=NC(=S)Nc2ccccc2C)c2cc(S(=O)(=O)N3CCOCC3)ccc21`, the AC50 is 10 µM [rising, partial curve, poor fit] under setting [2] and 10 µM [rising, partial curve] under setting [1].

As for `CCc1ccc(NC(=O)C(=O)NCCN2CCN(Cc3ccc([N+](=O)[O-])cc3)CC2)cc1`, the concentration at half-maximal activity (AC50) under setting [1] is 31.6 µM [rising, single point]. On to `CCC(CC)C(=O)Nc1ccc(Sc2ccc([N+](=O)[O-])cc2)cc1`, for which the AC50 under setting [1] is 0.398 µM [rising, single point]. For the compound `COc1ccc(C(=O)NCC(c2cccs2)S(=O)(=O)c2ccc(F)c(C)c2)cc1` (centres undefined), under setting [1], the AC50 is 0.0501 µM [falling, full curve, poor fit]. The same measure, in the same setting: in the case of `COc1cccc(-c2nc(Cc3ccc(OC)c(OC)c3)no2)c1` it was 15.8 µM [rising, single point]; in that of `Cc1cc(NC(=O)CSc2nc(-c3ccco3)cc(C(F)(F)F)n2)no1`, 0.708 µM [rising, full curve, poor fit]. Regarding `COc1cc(Cl)c(C)cc1NC(=O)COc1cc(C)nc(C(C)C)n1`, under setting [2], the AC50 was 12.6 µM [rising, single point]. As to `Cc1cc(/C=C2\SC(=S)NC2=O)cc(C)c1O`, the AC50 under setting [2] is 35.5 µM [falling, single point] and the AC50 under setting [1] was 22.4 µM [falling, single point]. As to `CCOc1ccc(NC(=O)C2C3CCC4C(CCC32)C4(Cl)Cl)cc1` (centres undefined), under setting [2], the AC50 was 0.0316 µM [falling, full curve, poor fit]. For `CCOc1cc(/C=N\NC(=O)c2ccc(NC(=O)C(C)(C)C)cc2)ccc1OC(=O)c1cccc(C)c1`, the AC50 runs as follows: under setting [2], 8.91 µM [rising, partial curve, poor fit]; under setting [1], 11.2 µM [rising, single point]. Turning to `COc1ccc(-c2nc3cnc(OCc4ccccc4)nc3n(CCC#N)c2=O)cc1`, the AC50 was 25.1 µM [falling, single point] under setting [2] and 14.1 µM [falling, single point] under setting [1]. Consider `CC1Cc2ccccc2N1C(=O)CSc1nc2ccccc2o1` (centres undefined), for which the AC50 under setting [2] is 6.31 µM [rising, single point] and the concentration at half-maximal activity (AC50) under setting [1] is 22.4 µM [rising, single point]. As for `NC(=O)C1CCCN1` (centres undefined), the AC50 under setting [2] is 0.0891 µM [falling, full curve].

Consider `COc1cccc(NC(=O)CN(Cc2ccccc2)S(=O)(=O)c2ccc3nc(C)sc3c2)c1`, for which the AC50 was 35.5 µM [falling, single point] under setting [2] and 35.5 µM [falling, partial curve, poor fit] under setting [1]. For the compound `Cc1nnc(SC(C)C(=O)Nc2ccc(S(=O)(=O)NC3CCCCC3)cc2)s1` (centres undefined), the half-maximal activity concentration (AC50) under setting [1] is 12.6 µM [rising, partial curve, poor fit]. Same read-out and setting: in the case of `COc1ccc(/C=C/C(=O)c2cc(Br)ccc(=O)c2O)cc1` it was 20 µM [rising, single point]. Take `CN(C)c1ncc2nc(-c3ccc(Cl)cc3)c(=O)n(-c3ccccc3)c2n1`: the concentration at half-maximal activity (AC50) is 12.6 µM [falling, partial curve] under setting [2] and 15.8 µM [falling, partial curve] under setting [1]. Turning to `COc1ccc(OC)c(-c2nc(C(N)=O)c3c(n2)n(-c2ccc4c(c2)OCO4)c(=O)n3C)c1`, the AC50 by setting is: under setting [2], 20 µM [falling, single point]; under setting [1], 20 µM [falling, single point]. In the case of `CCc1ccc(C2C3=C(CC(C)(C)CC3=O)Nc3c2c(=O)[nH]c2nc(C)nn32)cc1` (centres undefined), under setting [1], the AC50 was 20 µM [falling, single point].

In the case of `NC(=O)c1c(NC(=O)Cc2cccs2)sc2c1CCC2`, the AC50 under setting [1] is 11.2 µM [rising, partial curve, poor fit].
